Laboratory results taken from US20080096909A1, “APOMORPHINE INHIBITORS OF AMYLOID-BETA (ABETA) FIBRIL FORMATION AND THEIR USE IN AMYLOIDOSIS BASED DISEASE” (priority 2001, published 2008).
Some of these results come from one statement about several compounds together. At least one structure is not confirmed: it was looked up by name or label, or the drawing left a doubt. Some ranges recur; such a range may be that of the whole group of compounds.

Amino acid sequences for entries named in this document (tags omitted). Residues count along the entry.
UniProt P05067, 672-711: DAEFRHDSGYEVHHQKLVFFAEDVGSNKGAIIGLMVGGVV

What was measured:
[1] = molecular target: T1, pre-formed Aβ fibrils (Homo sapiens, UniProt P05067); assay: Competition for Thioflavin T binding sites on pre-formed Aβ fibrils; details: fibrils formed in the absence of apomorphine, 37° C., 3 days
T1 construct: Amyloid-β (Aβ 1-40) was purchased from California Peptides (Lot # SF104); purchased California Peptides Lot # SF104

[2] = molecular target: Aβ 1-40 (Homo sapiens, UniProt P05067); assay: Electron microscopy of Aβ aggregates in the presence of inhibitor; format: biochemical; set-up: Amyloid-β (Aβ 1-40) was purchased from California Peptides (Lot # SF104); purchased California Peptides Lot # SF104; details: for Incubation period during which nonfibrillar assemblies remain the dominant species (EM and sedimentation velocity): 37° C., incubation extended to nine days; for Average length of short oligomeric aggregates (EM): Aβ 1-40 100 μM with compound, pH 7.4, 37° C., 3 days
Protocol: Electron Microscopy. Electron microscopy was used to follow the changes in size and structural morphology of Aβ aggregates in the presence and absence of inhibitor at 37° C. as a function of time. EM samples were prepared by placing 5 μL of the Aβ solution on a carbon-coated grid and allowing the solution to stand for 2 min before removing excess solution. The grid was then washed once with distilled water and once with 1% uranyl acetate before staining the sample with fresh 1% uranyl acetate for another 2 min. The samples were then studied in a Phillips CM-100 electron microscope. The grids were thoroughly examined to get an overall statistical evaluation of the structures present in the sample. All electron micrographs were taken at 100 kV.

CCCN1CCc2cccc3c2[C@H]1Cc1ccc(O)c(O)c1-3.Cl [D027, R(−)-Propylnorapomorphine hydrochloride]
Decrease in the ThT signal on addition to pre-formed Aβ fibrils [1]: 70-85%
Incubation period during which nonfibrillar assemblies remain the dominant species (EM and sedimentation velocity) [2]: 1 to 6 days
Average length of short oligomeric aggregates (EM) [2]: 100-300 nm

Br.CCCN1CCc2cc(O)cc3c2[C@H]1Cc1ccc(O)c(O)c1-3 [D029, R(−)-2,10,11-Trihydroxy-N-propylnorapomorphine hydrobromide]
Decrease in the ThT signal on addition to pre-formed Aβ fibrils [1]: 70-85%
Incubation period during which nonfibrillar assemblies remain the dominant species (EM and sedimentation velocity) [2]: 1 to 6 days
Average length of short oligomeric aggregates (EM) [2]: 100-300 nm

Br.CN1CCc2cc(O)cc3c2[C@H]1Cc1ccc(O)c(O)c1-3 [D030, R(−)-2,10,11-Trihydroxyaporphine hydrobromide]
Decrease in the ThT signal on addition to pre-formed Aβ fibrils [1]: 70-85%
Average length of short oligomeric aggregates (EM) [2]: 100-300 nm

Br.Oc1ccc2c(c1O)-c1cccc3c1[C@@H](C2)NCC3 [D040, R(−)-Norapomorphine hydrobromide]
Decrease in the ThT signal on addition to pre-formed Aβ fibrils [1]: 70-85%
Incubation period during which nonfibrillar assemblies remain the dominant species (EM and sedimentation velocity) [2]: 1 to 6 days
Average length of short oligomeric aggregates (EM) [2]: 100-300 nm
